# Measured values published in patent US11299453B2 (Universität zu Köln, priority 2017, dated 2022).
# Some of these results come from one statement about several compounds together. For some of these results: At least one structure is not confirmed: it was looked up by name or label, or the drawing left a doubt.
# Test system: human neural progenitor cells derived from the human iPSC line Royan-hiPSC4
# Assay: Cell viability (PrestoBlue) of human iPSC-derived neural progenitor cells
# Format: cell-based
# Details: 1 μM, 72 h of treatment
# Method: To confirm the cytotoxicity of the compounds to PSCs, toxicity tests were also run with human neural progenitor cells (passage 20) derived from the human iPSC line Royan-hiPSC4 (RSCB0082). The cells were incubated for 24 h, 48 h and 72 h with compounds SM20, SM21, SM22 and SM23 in concentrations of 1 μM, 3 μM, 10 μM and 25 μM. Cell culture was performed as described above except that Koch medium was used. Experiments were run in quadruplicate and negative and positive control cells were treated with 0.001% DMSO or 0.1 μM, 1 μM, 10 μM and 25 μM of SM6, respectively. Cell viability was determined using PrestoBlue cell viability reagent.
row,Compound,NPCs killed
1,"Oc1ccccc1CN[C@@H]1CCCC[C@H]1NCc1ccccc1O [SM6, (1R,2R)-N,N′-di(2-hydroxybenzyl)-1,2-diaminocyclohexane]",10-20%
2,"c1ccc2[nH]c(CN[C@@H]3CCCC[C@H]3NCc3cc4ccccc4[nH]3)cc2c1 [SM21, (1R,2R)-N,N′-di[(2-indolyl)methyl]-1,2-diaminocyclohexane]",10-20%

# Test system: murine αPIG-AT25 iPSCs
# Assay: Cell viability (PrestoBlue) of murine iPSCs after compound treatment
# Format: cell-based
# Details: 1 μM, 48 hours
# Text: The transgenic murine induced pluripotent stem cell (miPSC) line αPIG-AT25 was generated from the miPSC line TiB7.4 as described in Fatima A et al., Stem Cell Res. 2016 Sep.; 17(2):266-272. The murine embryonic stem cell (ESC) line αPIG44-D3 was equally derived from D3 ESC line. Both transgenic mPSC lines express the IRES-linked genes encoding puromycin N-acetyl-aminotransferase (PAC) and enhanced green fluorescent protein (eGFP) which are under the control of cardiac alpha myosin heavy chain (α-MHC) promoter. They were cultured on mitomycin-inactivated mouse embryonic fibroblasts (MEF) in maintenance medium composed of Dulbecco's minimal essential medium (DMEM) with GlutaMAX (Life Technologies, Carlsbad, USA) supplemented with 15% fetal bovine serum (FBS, Sigma-Aldrich, St. Louis, USA), 1× non-essential amino acids (NEEA, Life Technologies), 50 μM β-mercaptoethanol (β-ME, Life Technologies) and 1000 U/ml of murine leukemia inhibitory factor (mLIF, ORF Genetics, Kopavogur, Iceland). Cell passaging was performed every 2-3 days by dissociating the cells with 0.05% trypsin-EDTA (Life Technologies) and seeding 1-2×10^4 cells/cm^2. The wild type mESC line R1 was cultured on cell culture plates coated with 0.1% gelatin (Sigma-Aldrich) and maintained like the transgenic mPSCs.
# Serial dilutions of DMSO stock solutions of PluriSIn #1 (Sigma-Aldrich, catalog number SML0682) or one of small molecules SM1-SM10, were prepared from 20 mM stock solutions with cell culture medium. Murine PSCs were dissociated with 0.05% trypsin-EDTA, seeded on 0.1% gelatin-coated 96-well plates with a density of 5000 cells/well and cultured in maintenance medium supplemented with 1000 U/ml of mLIF. After 1 day, cells were incubated with 40 μM PluriSIn #1 and derivatives for 72 h or with 0.01-25 μM SMs for 48 h, respectively. For treatment of corresponding PSC-derived CMs with SMs, puromycin-selected miPSC-CMs from day 14 of differentiation were dissociated with 0.25% trypsin-EDTA as described above and plated on 96-well plates (5×10^4 cells/well) which were pre-coated with 5 μg/ml fibronectin (PromoCell, Heidelberg, Germany). After culturing miPSC-CMs with 8 μg/ml puromycin for 2 more days, they were incubated in differentiation medium supplemented with 0.1-100 μM of SMs for 48-72 h. Following small molecule treatment, cell viability was determined with PrestoBlue cell viability reagent (Life Technologies). To this end, cells were washed with PBS (with calcium and magnesium, Life Technologies) and incubated with PrestoBlue reagent diluted in cell culture medium for 40 min at 37° C.
# Fluorescence intensities correlating with the number of viable cells in the wells were measured in black flat-bottom 96-well plates (Greiner Bio-One, Kremsmünster, Austria) with a GeniosPro microplate reader (Tecan, Männedorf, Schweiz).
# IC50 values were determined by regression analysis of dose-response curves upon logarithmic transformation. Microscopic images of PSCs were taken with a Zeiss Axiovert 100 inverted microscope and GFP images of CMs were captured with a Zeiss Axiovert 200M fluorescence microscope (both Carl Zeiss, Oberkochen, Germany) and analyzed with Zeiss Axiovision 4.5 software (Carl Zeiss).
# The cytotoxicity of the compounds according to formulas SM1 to SM10 to pluripotent stem cells (PSCs) was determined in a population of murine αPIG-AT25 iPSCs, which were incubated for 48 h with compounds SM1 to SM10 in concentrations of 0.1 μM, 1 μM, 10 μM and 25 μM. Cell culture was performed as described above. Experiments were run in quadruplicate and negative and positive control cells were treated with 0.125% DMSO or 8 μg/ml puromycin, respectively. The cell viability was determined using PrestoBlue cell viability reagent. […]
row,Compound,cells killed
1,"Oc1c(/C=N/[C@H]2CCCC[C@@H]2NCc2cccc(-c3ccccc3)c2O)cccc1-c1ccccc1 [SM2, (1S,2S)-N-[(2-hydroxy-3-phenyl)-benzyl]-N′-[(2-hydroxy-3-phenyl)-benzylidene]-1,2-diaminocyclohexane]",more than 50%
2,"Oc1c(CNC2CCCC[C@@H]2NCc2cccc(-c3ccccc3)c2O)cccc1-c1ccccc1 (stereo partly drawn) [SM8, (1S,2R)-N,N′-di[(2-hydroxy-3-phenyl)-benzyl]-1,2-diaminocyclohexane]",more than 50%
3,"Oc1c(CN[C@@H]2CCCC[C@H]2NCc2cccc(-c3ccccc3)c2O)cccc1-c1ccccc1 [SM4, (1R,2R)-N,N′-di[(2-hydroxy-3-phenyl)-benzyl]-1,2-diaminocyclohexane]",more than 50%
4,"Oc1ccccc1CN[C@@H]1CCCC[C@H]1NCc1ccccc1O [SM6, (1R,2R)-N,N′-di(2-hydroxybenzyl)-1,2-diaminocyclohexane]",more than 50%
5,"Oc1c(CN[C@@H]2CCCC[C@H]2NCc2cccc(-c3c(F)c(F)c(F)c(F)c3F)c2O)cccc1-c1c(F)c(F)c(F)c(F)c1F [SM20, (1R,2R)-N,N′-di[(2-hydroxy-3-penta-fluorophenyl)-benzyl]-1,2-diaminocyclohexane]",more than 95%
6,"Oc1c(CNC2CCCC[C@@H]2NCc2cccc(-c3ccccc3)c2O)cccc1-c1ccccc1 (stereo partly drawn) [SM1, (1S,2S)-N,N′-di[(2-hydroxy-3-phenyl)-benzyl]-1,2-diaminocyclo-hexane]",more than 50%
7,"Oc1c(/C=N/[C@@H]2CCCC[C@H]2NCc2cccc(-c3ccccc3)c2O)cccc1-c1ccccc1 [SM5, (1R,2R)-N-[(2-hydroxy-3-phenyl)-benzyl]-N′-[(2-hydroxy-3-phenyl)-benzylidene]-1,2-diaminocyclohexane]",more than 50%

# Same assay, conditions: 10 μM, 48 h
row,Compound,iPSCs killed
1,"Oc1c(CN[C@@H]2CCCC[C@H]2NCc2cccc(-c3cccs3)c2O)cccc1-c1cccs1 [SM23, (1R,2R)-N,N′-di([2-hydroxy-3-(2-thienyl)]-benzyl)-1,2-diaminocyclohexane]",more than 95%
